PubChem BioAssay AID743454 | Peter MacCallum Cancer Centre, 2014
Aim: 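Genes whose loss kills vorinostat-resistant colon cancer cells under vorinostat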 (primary screen). Cell system: human HCT116-VR colon cancer cells, selected for vorinostat resistance. Knock-down reagent: siRNA pool against human genes, 40 nM siRNA pool. Duration: vorinostat for 24 h, read-out about 72 h after transfection. Conditions: vorinostat at 2.5 µM final. Measured: 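Two measures, CellTiter-Fluor viability and luminescent caspase 3/7 activity, each as fold change against same-plate mock wells, mean of duplicates, then screen-wide robust z-score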. Scale: viability robust z-score: higher = more viable cells than screen typical; caspase robust z-score: higher = more caspase 3/7 activity than screen typical. Rule for the call: 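Hits are knock-downs in viability class RV1/RV2 or caspase class CA1/CA2, excluding ones that killed cells in the no-drug cell-count arm; hits then retested with single siRNAs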.
This is one part, drawn at random, of about 18,000 reagents tested. 450 of them (2.5%) were called active. 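Single biological run; no consistent viability z cut-off exists, so the class columns, not z-scores, define the calls.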 A number with no mark means an inactive call. Reagent sequences are not shown.

gene knocked down | viability hit class | caspase hit class | viability robust z-score | caspase robust z-score
DGLUCY | no change | no change | 0.34 | 1.52
PIK3C2A | no change | no change | -4.02 | 1.24
CD40 | no change | no change | -0.3 | -1.3
YTHDF2 | no change | no change | -2.12 | 0.27
CAMK2A | no change | no change | -0.92 | 0.7
TMPRSS12 | no change | no change | 0.41 | 0.72
MT1H | no change | no change | 0.95 | -0.86
DNAJC2 | no change | no change | -0.42 | -0.3
SMG5 | no change | no change | 0.92 | -0.65
LINC02694 | no change | no change | 0.85 | -0.77
DNAAF5 | no change | no change | -0.26 | 0.02
POLDIP2 | no change | no change | 0.71 | 0.36
RUFY2 | no change | no change | 1.23 | -0.67
HUS1 | no change | no change | 1.06 | 3.44
RNASE13 | no change | no change | -0.66 | 0.08
FAM89B | no change | no change | -1.15 | -0.57
GUF1 | no change | no change | 0.68 | -0.46
IKBKB | no change | no change | -1.01 | 1.92
KIF2B | no change | no change | 0.3 | -0.69
FGF1 | no change | no change | -0.32 | 3.95
OR10R2 | no change | no change | 0.18 | -0.68
AP1M1 | no change | no change | 1.29 | -0.76
DRC5 | no change | no change | 0.93 | -0.1
LINC00452 | no change | no change | -0.41 | -0.27
RSRC1 | no change | no change | -0.22 | -0.86
KYAT3 | no change | no change | -0.1 | 1.19
FAM174C | no change | no change | -0.1 | 0.31
TMCO5A | no change | no change | -1.33 | 3.72
NIN | no change | no change | 1.36 | -0.99
CPED1 | no change | no change | 0.45 | 1.05
ZNF177 | no change | no change | 1.19 | -0.11
TPM3 | no change | no change | 0.3 | -0.48
KRTAP6-1 | no change | no change | -1.67 | 1.37
ABCA1 | no change | no change | 0.77 | -0.08
CNN2 | no change | no change | 0.55 | 1.1
USP36 | no change | no change | -0.7 | 0.16
PLEKHA5 | no change | no change | -0.32 | -0.45
CLCA3P | no change | no change | -0.04 | -0.77
CHPF2 | no change | no change | 0.5 | 3.89
GNAI2 | no change | no change | 1.66 | 1.92
LRRC3 | no change | no change | -1.09 | -0.71
PLEKHA4 | no change | no change | -1.02 | 2.49
KDM5D | no change (active) | CA1 (caspase activation) | -1.58 | 5.4
PRKACA | no change | no change | 0.88 | -0.32
RS1 | no change | no change | -0.5 | -0.83
LPP | no change | no change | -0.94 | -0.9
RTN2 | no change | no change | 0.08 | -0.29

Entries above marked active:
gene knocked down | viability hit class | caspase hit class | viability robust z-score | caspase robust z-score
KDM5D | no change (active) | CA1 (caspase activation) | -1.58 | 5.4

The listing continues.
gene knocked down | viability hit class | caspase hit class | viability robust z-score | caspase robust z-score
KRTAP19-7 | no change | no change | 0.14 | 2.22
CPT1C | no change | no change | 0.21 | -0.18
FBXW2 | no change | no change | 0.78 | -0.26
PTPN6 | no change | no change | -0.1 | 0.34
TNFRSF10B | no change | no change | 0.5 | -0.47
FXR1 | no change | no change | 0.89 | -0.62
IARS1 | no change | no change | -0.18 | -0.5
IGBP1 | no change | no change | -0.16 | 0.42
TSPYL6 | no change | no change | -0.56 | 2.14
DFFB | no change | no change | 0.68 | -0.32
DDAH1 | no change | no change | -0.48 | 0.09
FBRS | no change | no change | -0.83 | 1.67
AJM1 | no change | no change | 1.19 | -0.74
SKIDA1 | no change | no change | -0.02 | 0.08
CLDN8 | no change | no change | 1 | 0.34
B4GALNT4 | no change | no change | -0.52 | -0.82
NATD1 | no change | no change | 1.88 | -0.5
ARHGAP4 | no change | no change | 1.26 | -0.34
ADGRB1 | no change | no change | 0.58 | 0.44
AFG2B | no change | no change | 1.45 | -0.7
ZNF519 | no change | no change | 0.46 | -0.82
COQ8B | no change | no change | -0.12 | -0.46
TMEM163 | no change | no change | -0.1 | 0.3
LOC653978 (retired record) | no change | no change | -0.4 | 4.4
ZNF74 | no change | no change | 1.26 | -0.7
TBX4 | no change | no change | -0.38 | 0.18
